Reference: publication PMC8073976, “Towards Targeted Alpha Therapy with Actinium-225: Chelators for Mild Condition Radiolabeling and Targeting PSMA—A Proof of Concept Study” (Cancers, 2021)

Experiment: 225Ac-labeling of ligands in serial dilution, radiochemical yield and 7-day stability by TLC
Type: physicochemical
Details: 100 kBq actinium-225, 0.2 M ammonium acetate buffer pH 6, room temperature; for RCY NP (1 h): normal phase TLC, silica, 50 mM EDTA pH 7; for RCY RP (1 h): reversed-phase TLC, Alugram RP-CN, acetonitrile/water 7/3
Method: To compare the efficiency of the synthesized chelators and their conjugates, 100 kBq of actinium-225 were incubated with each ligand at different concentrations (10^−5 M; 10^−6 M; 10^−7 M). The radiochemical yield was determined after one hour of reaction time using normal phase and reversed-phase TLC. Whereas one TLC-system was designed to move free actinium-225 with the solvent front, the other system was developed only to move the actinium-225 labeled complexes. Concentration-dependent radiochemical yields for all ligands and 7-day-longterm yields, which were calculated using both TLC systems, are presented in Table 1.
Actinium-225 was purchased as a 0.1 M HCl solution from ITM Munich and used without purification. Stem solutions of all ligands were prepared in concentrations of 10^−2 M and diluted to 10^−6 M using 0.2 M ammonium acetate buffer at pH 6. For concentration-dependent labeling experiments, 10 µL of each ligand stem solution was incubated with 100 kBq of actinium-225 (1–5 µL) and the total volume was adjusted to 100 µL with 0.2 M ammonium acetate buffer at pH 6. For stability analyses, 50 µL of the buffer volume were replaced by 50 µL of 0.2 M ascorbic acid or 50 µL of 2,5-dihydroxy benzoic acid, respectively. Labeling for cell-binding studies was performed using 1.5 MBq of actinium-225 and 4 nmol of the respective PSMA ligand in a total volume of 400 µL adjusted with 0.2 M ammonium acetate buffer at pH 6. Radiolabeling for cell survival studies and all in vivo experiments were performed using 1.5 MBq of actinium-225 and 3.3 nmol of the respective ligand.
All samples were incubated for one hour at room temperature and analyzed afterward. TLC analyses were carried out in two different systems, normal phase on silica plates in 50 mM EDTA solution (pH 7) and reversed-phase on Alugram RP-CN in acetonitrile/water (7/3). TLC plates were imaged using a phosphoimager Amersham Typhoon 5 Scanner (Cytiva Europe GmbH, Freiburg, Germany) after a decay time of at least 7 h. Analytical HPLC was performed using a Jasco HPLC system with RITA analyzer (Elysia-raytest GmbH, Straubenhardt, Germany) for gamma detection on a Phenomenex Phenyl-Hexyl column in water/acetonitrile (+ 0.1% TFA). Radioactivity was measured in Isomed 2100 dose calibrator. Low radioactivity count rates were determined in Isomed 2160 sodium iodide detector. More precise measurements and nuclide identification were carried out on an activity- and efficiency-calibrated HPGe detector CryoPulse 5 (Canberra).

| SMILES | RCY NP (1 h) (ligand 10^−5 M) | RCY RP (1 h) (ligand 10^−5 M) | RCY NP (1 h) (ligand 10^−6 M) | RCY RP (1 h) (ligand 10^−6 M) | RCY NP (1 h) (ligand 10^−7 M) | RCY RP (1 h) (ligand 10^−7 M) |
| --- | --- | --- | --- | --- | --- | --- |
| O=C([O-])c1cccc(CN2CCOCCOCCN(Cc3cccc(C(=O)[O-])n3)CCOCCOCC2)n1.[225Ac+3] [[^225Ac]Ac-macropa, reference compound] | 99% | 99% | 99% | 90% | 56% | 37% |
| O=C(O)CC[C@H](NC(=O)N[C@@H](CCCCNC(=O)[C@H](Cc1ccc2ccccc2c1)NC(=O)[C@H]1CC[C@H](CNC(=O)CCCCn2cc(COc3cc(CN4CCOCCOCCN(Cc5cc(OCc6cn(CCCCC(=O)NC[C@H]7CC[C@H](C(=O)N[C@@H](Cc8ccc9ccccc9c8)C(=O)NCCCC[C@H](NC(=O)N[C@@H](CCC(=O)O)C(=O)O)C(=O)O)CC7)nn6)cc(C(=O)O)n5)CCOCCOCC4)nc(C(=O)O)c3)nn2)CC1)C(=O)O)C(=O)O [[^225Ac]Ac-mcp-D-PSMA, metal not drawn] | 99% |  | 99% |  | 93% |  |
| C#CCOc1cc(CN2CCOCCOCCN(Cc3cc(OCC#C)cc(C(=O)[O-])n3)CCOCCOCC2)nc(C(=O)[O-])c1.[225Ac+3] [[^225Ac]Ac-mcp-D-click] | 99% | 99% | 99% | 99% | 52% | 41% |
| O=C(O)CCCCn1cc(COc2cc(CN3CCOCCOCCN(Cc4cccc(C(=O)[O-])n4)CCOCCOCC3)nc(C(=O)[O-])c2)nn1.[225Ac+3] [[^225Ac]Ac-mcp-M-COOH] | 99% | 99% | 99% | 98% | 98% | 98% |
| O=C(O)CC[C@H](NC(=O)N[C@@H](CCCCNC(=O)[C@H](Cc1ccc2ccccc2c1)NC(=O)[C@H]1CC[C@H](CNC(=O)CCCCn2cc(COc3cc(CN4CCOCCOCCN(Cc5cccc(C(=O)O)n5)CCOCCOCC4)nc(C(=O)O)c3)nn2)CC1)C(=O)O)C(=O)O [[^225Ac]Ac-mcp-M-PSMA, metal not drawn] | 99% |  | 99% |  | 89% |  |
| C#CCOc1cc(CN2CCOCCOCCN(Cc3cccc(C(=O)[O-])n3)CCOCCOCC2)nc(C(=O)[O-])c1.[225Ac+3] [[^225Ac]Ac-mcp-M-click] | 99% | 96% | 99% | 97% | 20% | 23% |
